Results are given in words; binding and its absence hold for the method and conditions named. For some of these results: In cells and extracts the contact can be indirect. Some results given as binding are weak or reduced against the parent protein; the word gives no strength.
Legend:
[1] = target: T1, gC1qR/p32 at the cell surface (human, UniProt Q07021 74-282); test: phage binding to p32-transfected C8161 cells and Raji cells
T1 construct: whole, on cells; also called cell surface p32
T1 sequence (looked up): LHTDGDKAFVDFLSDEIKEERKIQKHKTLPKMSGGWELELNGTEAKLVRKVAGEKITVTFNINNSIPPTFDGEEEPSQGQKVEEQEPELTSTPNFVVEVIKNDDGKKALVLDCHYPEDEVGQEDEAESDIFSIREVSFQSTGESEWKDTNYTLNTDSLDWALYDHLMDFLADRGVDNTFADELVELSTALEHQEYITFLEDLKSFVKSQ

[2] = target: T1, gC1qR/p32 at the cell surface; test: phage binding to transfected C8161 cells
[3] = target: T1, gC1qR/p32 at the cell surface; test: phage binding to transfected, EGFP-sorted C8161 cells
[4] = target: T2, purified gC1qR/p32 protein (human, UniProt Q07021 74-282); test: phage binding to coated wells
T2 construct: also called purified p32
T2 sequence (looked up): T1 sequence (looked up)

[5] = target: T2, purified gC1qR/p32 protein; test: phage binding to coated wells, plaque assay
[6] = target: T2, purified gC1qR/p32 protein; test: phage binding to coated wells (5 µg/ml), 16 h at 37 C, plaque assay
[7] = target: T3, gC1qR/p32 from tumor cell extracts (human, UniProt Q07021 74-282); test: pull-down with biotinylated peptide from MDA-MB-435 extracts
T3 construct: mature; From xenograft extracts an additional 75 kD band was also identified as gC1qR/p32; also called gC1q/p32 receptor; p32/p33/gC1qR/HABP1
T3 sequence (looked up): T1 sequence (looked up)

[8] = target: T3, gC1qR/p32 from tumor cell extracts; test: pull-down with biotinylated peptide
[9] = target: T3, gC1qR/p32 from tumor cell extracts; test: pull-down with biotin-labeled peptide from MDA-MB-435 extracts; band identified by MALDI-TOF as mature gC1qR/p32; also from BT549 cells and MDA-MB-435 xenografts
[10] = target: T3, gC1qR/p32 from tumor cell extracts; test: pull-down with biotinylated peptide from MDA-MB-435 cell and xenograft extracts

Measured: binding

CGNKRTRGC (peptide, not shown: large carriers) [LyP-1 phage]
binds: [1] | [2] | [3] | [4] | [5] | [6]

CGNKRTRGC (biotinylated; cyclic peptide with a disulfide bond) [biotinylated Lyp-1 peptide]
binds: [7] | [8] | [9] | [10]
